Measured values: PubChem BioAssay AID1688 (National Center for Advancing Translational Sciences (NCATS), 2009)
Where “and” joins values, the source holds several entries; their conditions need not be identical. Equal entries are not always repeated. The campaign covered roughly 220,000 compounds. About 2,400 (1.1%) were called active. The inconclusive results got no clear call from the source; some entries with a clear call stand among them for comparison. The call rests on the fitted dose curve; in most records, active means well fitted inhibition curve with a large enough effect; inconclusive means small, poorly fitted or top-dose-only effect, or effect the other way; inactive means no such curve, though single readings can be large or run the other way. Potencies beside an inconclusive call are fits to weak or partial responses and may not hold up.

assay: qHTS Multiplex Assay to Identify Dual Action Probes in a Cell Model of Huntington: Aggregate Formation (GFP); conditions: PC12 HttQ103-GFP aggregates, Acumen cytometry, 40 h; activity change, negative = inhibition: at 46.1 µM (top of the series) unless noted; further: nearly all actives have a fitted effect of over 60% in size
Method in brief: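 Read-out: GFP aggregate count by laser scanning cytometer (488 nm excitation, 500-530 nm emission, 1–25 µm objects >6 SD above background). Cells: PC12, inducible HTTex1-Q103-GFP, 100 nM tebufenozide; compounds titrated.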
On the % scale 0 is the no-effect control and ±100 the full control effect; potency means the concentration at half of the fitted maximal effect.

SMILES | Potency | activity change, negative = inhibition
COc1cccc(C2OC(=O)c3ccccc3N2C(C)=O)c1OC(C)=O (centres undefined) | inconclusive: 14.1 µM [activator, single point] | 
Cc1ccc2c(c1)C(=C(C#N)C#N)C(=O)N2CCN1CCCCC1 |  | inactive: 11.8% [at 9.22 µM]
Cc1ccc(C)n1CCN1CCN(C(=O)CSc2nc3ccccc3nc2N2CCOCC2)CC1 | inconclusive: 17.8 µM [activator, single point] | 
CC1CCCN(C(=O)C2CCN(S(=O)(=O)c3cccc4cccnc34)CC2)C1 (centres undefined) | inconclusive: 0.562 µM [activator, partial curve, poor fit] | 
O=C(NC1CC1)C1=C[C@@H](c2csc3ccccc23)C[C@@H](OCCCCO)O1 |  | inactive: 4.79% [at 9.22 µM]
Cc1ccc(-n2c(SCC(N)=O)nnc2-c2ccccn2)cc1C | inconclusive: 6.31 µM [activator, single point] | 
COc1ccc(OC)c(Nc2ncnc3c2cnn3-c2ccccc2)c1 | inconclusive: 1 µM [activator, single point] | 
Cc1ccc(NC(=O)C2CC(=O)NC(Nc3cccc(C)c3)=N2)cc1 (centres undefined) | inconclusive: 0.562 µM [inhibitor, partial curve] | 
COc1ccc(C=O)cc1CSc1nnc(COc2cccc3cccnc23)o1 | inconclusive: 5.01 µM [inhibitor, partial curve] | 
O=C(Nc1cc(S(=O)(=O)N2CCOCC2)ccc1N1CCCC1)c1cnccn1 | inconclusive: 5.62 µM [inhibitor, single point] | 
CC(C)NC(=O)Cn1cnc2c1c(=O)n(C)c(=O)n2C |  | inactive: 13%
Cc1ccc(-c2nc(CS(=O)(=O)CC(=O)N3CCc4ccccc4C3)c(C)o2)cc1 | inconclusive: 15.8 µM [inhibitor, single point] | 
CC(C)C(=O)N1CCN(c2nc(-c3ccccc3)c3c(c2C#N)CC(C)(C)OC3)CC1 | inconclusive: 8.91 µM [inhibitor, partial curve] | 
CCCCOc1ccc(S(=O)(=O)NCc2csc(C)n2)cc1 | inconclusive: 17.8 µM [inhibitor, single point] | 
O=C(C1CC(=O)N(C2CCCC2)C1)N1CCC(Cc2ccccc2)CC1 (centres undefined) |  | inactive: -29%
COCCNC(=O)c1cc2c(=O)n3cccc(C)c3nc2n1C | inconclusive: 1.26 µM [activator, single point] | 
COc1ccc(CCNC(=O)CSc2nnc(-c3ccc(F)cc3)c3ccccc23)cc1OC | inconclusive: 35.5 µM [activator, partial curve, poor fit] | 
Cc1ccc(S(=O)(=O)Nc2ccccc2/C=N/c2nc3ccccc3n2C)cc1 |  | inactive: 25.2%
Cc1ccc(S(=O)(=O)Nc2nsc(N)n2)cc1 | inconclusive: 11.2 µM [activator, partial curve] | 
COC(C(=O)Nc1ccc(S(=O)(=O)Nc2ccc(C)c(C)c2)cc1)c1ccccc1 (centres undefined) | inconclusive: 12.6 µM [inhibitor, partial curve, poor fit] | 
O=C(c1ccccc1)N1CCN(C(=O)c2ccc3c(c2)OCCO3)CC1 |  | inactive: -4.32%
Cc1cccc(N2C(N)=C(C#N)C(C#N)(C#N)C2c2ccccc2)c1 (centres undefined) | inconclusive: 35.5 µM [inhibitor, single point] | 
O=C(COc1c(Cl)cc(Cl)cc1Cl)c1ccc(Cl)cc1 |  | inactive: 11.5%

Whole records from above.
O=C(c1ccccc1)N1CCN(C(=O)c2ccc3c(c2)OCCO3)CC1 in the list: activity change, negative = inhibition: inactive: -4.32%
O=C(COc1c(Cl)cc(Cl)cc1Cl)c1ccc(Cl)cc1 in the list: activity change, negative = inhibition: inactive: 11.5%
CC(C)C(=O)N1CCN(c2nc(-c3ccccc3)c3c(c2C#N)CC(C)(C)OC3)CC1 in the list: Potency: inconclusive: 8.91 µM [inhibitor, partial curve]
COCCNC(=O)c1cc2c(=O)n3cccc(C)c3nc2n1C in the list: Potency: inconclusive: 1.26 µM [activator, single point]

Further structures.

SMILES | Potency | activity change, negative = inhibition
CCc1nc2c(c(=O)[nH]1)C1(CCCC1)Cc1ccccc1-2 |  | inconclusive: 31.2% [activator]
CC(=O)c1cn(CC(=O)Nc2ccc(C)cc2)c2ccccc12 | inconclusive: 0.562 µM [inhibitor, full curve, poor fit] | 
CC1CCN(S(=O)(=O)c2ccc3c(c2)oc(=O)n3CC(=O)NCc2ccc3c(c2)OCO3)CC1 | active: 8.91 µM | 
O=C1C2C3C=CC(C3)C2C(=O)N1CCN1CCN(Cc2ccc([N+](=O)[O-])cc2)CC1 (centres undefined) | inconclusive: 15.8 µM [inhibitor, single point] | 
CC(=O)NN1C(=O)/C(=C/c2ccc(C(C)C)cc2)SC1=S | inconclusive: 15.8 µM [inhibitor, single point] | 
CCOc1ccc(CN(C)CC(=O)NCc2ccccc2Cl)cc1 | inconclusive: 10 µM [inhibitor, partial curve] | 
Cn1c(CNC(=O)c2ccc(F)cc2)nc2ccccc21 |  | inactive: -9.83%
FC(F)(F)c1cccc(-c2nc3nc(Cl)c(Cl)nc3[nH]2)c1 | inconclusive: 5.62 µM [inhibitor, single point] | 
O=c1cc(O)c2c(=O)n(C3CCCCC3)c3ccccc3c2o1 |  | inactive: 5.31%
CCOC(=O)CNC(=O)CSc1nnc(NC(=O)c2ccccc2Cl)s1 |  | inactive: 13.5%
Cc1cccc(NC(=O)Cn2c(O)c(N=NC(=O)c3ccncc3)c3ccccc32)c1 | inconclusive: 0.794 µM [activator, partial curve, poor fit] | 
Cc1cc(NC(=O)c2c(Cl)cnn2C)no1 |  | inactive: -5.32%
COc1ccc(N2C(=O)[C@@H]3[C@H](C2=O)[C@H](C(=O)c2ccc(OC(C)=O)cc2)N2N=CC=C[C@@H]32)cc1 |  | inactive: 4.21%
Cc1c(C(=O)c2cccc(F)c2)c2ccccn2c1CCC#N | inconclusive: 4.47 µM [inhibitor, single point] | 
Cc1ccc(C(=O)NC(=S)NCC2CCCO2)cc1Br (centres undefined) |  | inactive: -3.61%
CCOC(=O)c1nc2sc3c(c2c(=O)[nH]1)CCC(C)C3 (centres undefined) |  | inactive: 8.41% [at 9.22 µM]
Cc1ccc(S(=O)(=O)c2cc3c(=O)n4cccc(C)c4nc3n(Cc3ccco3)c2=N)cc1C | inconclusive: 14.1 µM [activator, single point] | 
N/C(=N\OC(=O)c1ccccc1[N+](=O)[O-])c1cccnc1 | inconclusive: 8.91 µM [inhibitor, partial curve] | 
CCN1/C(=C/C=C/C=C/c2sc3ccccc3[n+]2CC)Sc2ccccc21 | active: 12.6 µM and active: 3.98 µM | 
O=C(Oc1cc2oc(=O)cc(-c3ccccc3)c2cc1Cl)C1CCCCC1 | active: 7.08 µM | 
CN1CCN(C(c2cccc(Cl)c2)c2ccccc2Cl)CC1 (centres undefined) | inconclusive: 12.6 µM [inhibitor, single point] | 
CCC(=O)/C=C1/Sc2ccccc2N1CC | active: 7.08 µM | 
COc1ccc(/C=N/NC(=O)c2cc(Br)ccc2O)cc1Cn1cc(Cl)cn1 | inconclusive: 35.5 µM [inhibitor, single point] | 

SMILES | Potency | activity change, negative = inhibition
Cc1cc(C(=O)OCC(=O)c2ccc3c(c2)OCCO3)c(C)o1 |  | inactive: -7.79%
Brc1ccc(-c2cn3c(n2)CCc2ccc4cccnc4c2-3)cc1 | inconclusive: 35.5 µM [inhibitor, single point] | 
O=c1[nH]n2c(=O)c3c([nH]c2c1N=Nc1cccc(C(F)(F)F)c1)CCCC3 | inconclusive: 12.6 µM [activator, single point] | 
Cc1ccc(NCc2ccccc2OCc2ccccc2F)cc1 | inconclusive: 14.1 µM [inhibitor, single point] | 
CC1CCCCN1C(=O)CSc1nc2ccsc2c(=O)n1Cc1ccccn1 (centres undefined) |  | inactive: 1.45%
COc1ccc(OC)c(C2C3=C(COC3=O)Nc3cc4c(cc32)OCO4)c1 (centres undefined) | inconclusive: 0.891 µM [inhibitor, full curve, poor fit] | 
CC(C)c1ccc(NC(=O)C(c2ccccc2)N2CCC3(CC2)OCCO3)cc1 (centres undefined) | inconclusive: 35.5 µM [inhibitor, single point] | 
Cc1cccc(C(=O)NC(NCCc2ccccc2)C(Cl)(Cl)Cl)c1 (centres undefined) | inconclusive: 35.5 µM [inhibitor, single point] | 
CC(/C=C/c1ccccc1)=N\Nc1nc(-c2ccccc2)cs1 |  | inactive: -1.71%
COc1ccc(-c2nc3ccccc3c(=O)n2CCOc2ccccc2C)cc1 |  | inactive: 14.6%
COc1ccc(S(=O)(=O)NC(C)C(=O)Nc2cccc([N+](=O)[O-])c2)cc1 (centres undefined) | inconclusive: 1.12 µM [inhibitor, partial curve] | 
CCn1c(C)nc2cc(S(=O)(=O)C(F)(F)C(F)C(F)(F)F)ccc21 (centres undefined) | active: 7.08 µM | 
Cc1ccc(C)n1-n1c(C)nc2sc(-c3ccccc3)cc2c1=O | inconclusive: 35.5 µM [inhibitor, single point] | 
COc1ccc(N=C2SC(CC(=O)Nc3cccc(Cl)c3)C(=O)N2Cc2ccco2)cc1 (centres undefined) | inconclusive: 35.5 µM [inhibitor, single point] | 
Cc1cc(C)cc(CC(Cc2nc3ccccc3[nH]2)c2nc3ccccc3[nH]2)c1 (centres undefined) | active: 22.4 µM | 
O=C(O)CN=C1NC2(CCCCC2)Cc2ccccc21 |  | inactive: -18.6%
CCCCCCN(C(=O)CCCCCN1C(=O)NC(c2ccc(-c3ccccc3)cc2)C(C(=O)OCc2ccccc2)=C1C)C(C(=O)NCCCC)c1ccccc1 (centres undefined) | inconclusive: 6.31 µM [inhibitor, partial curve, poor fit] | 
Cc1sc2ncnc(-n3cnc4ccccc43)c2c1C | inconclusive: 22.4 µM [inhibitor, partial curve] | 
Cc1cc(C)c(C(=O)Nc2ccc(Br)c(C(F)(F)F)c2)c(C)c1 | active: 20 µM | 
CCCCNc1nc(N)nc(-c2cc(Cl)ccc2O)n1 | inconclusive: 35.5 µM [inhibitor, single point] | 
CCOc1ccccc1N(CC(=O)Nc1ccc(S(=O)(=O)N2CCOCC2)cc1)S(=O)(=O)c1ccccc1 | inconclusive: 35.5 µM [inhibitor, single point] | 
N#Cc1nc(COc2ccccc2)oc1NCCCn1ccnc1 | inconclusive: 2.82 µM [inhibitor, partial curve] | 
COc1ccc(Cn2c3nc4ccccc4nc3c3c(=O)n(Cc4ccco4)cnc32)cc1 | inconclusive: 35.5 µM [inhibitor, single point] | 
